Laboratory results as given in the supplement of paper PMC10849652.
The other results are listed elsewhere or left out.

Amino acid sequences for entries named in this document (tags omitted). A change or cut given only in a name is not applied to a line headed by its entry.
UniProt Q6DCA0: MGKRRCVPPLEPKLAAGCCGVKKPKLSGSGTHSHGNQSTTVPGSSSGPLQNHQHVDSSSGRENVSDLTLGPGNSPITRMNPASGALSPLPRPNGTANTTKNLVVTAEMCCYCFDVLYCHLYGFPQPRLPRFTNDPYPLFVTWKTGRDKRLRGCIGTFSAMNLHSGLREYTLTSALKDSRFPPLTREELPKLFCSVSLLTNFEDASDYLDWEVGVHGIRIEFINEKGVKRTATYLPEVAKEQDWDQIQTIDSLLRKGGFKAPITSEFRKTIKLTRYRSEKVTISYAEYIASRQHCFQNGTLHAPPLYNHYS
UniProt Q9HCJ1: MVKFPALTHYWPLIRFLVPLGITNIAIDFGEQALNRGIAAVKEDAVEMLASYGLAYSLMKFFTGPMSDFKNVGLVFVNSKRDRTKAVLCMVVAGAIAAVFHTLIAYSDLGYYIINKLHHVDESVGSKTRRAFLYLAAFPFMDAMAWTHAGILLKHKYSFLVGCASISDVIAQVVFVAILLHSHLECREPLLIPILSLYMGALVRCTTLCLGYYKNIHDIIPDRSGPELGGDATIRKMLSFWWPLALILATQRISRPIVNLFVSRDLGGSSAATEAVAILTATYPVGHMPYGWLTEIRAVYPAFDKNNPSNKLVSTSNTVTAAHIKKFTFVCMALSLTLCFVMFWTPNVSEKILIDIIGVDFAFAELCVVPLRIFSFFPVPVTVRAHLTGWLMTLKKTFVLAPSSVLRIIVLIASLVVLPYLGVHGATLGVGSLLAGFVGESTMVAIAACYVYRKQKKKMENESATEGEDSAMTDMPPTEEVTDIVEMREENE
UniProt Q86W74: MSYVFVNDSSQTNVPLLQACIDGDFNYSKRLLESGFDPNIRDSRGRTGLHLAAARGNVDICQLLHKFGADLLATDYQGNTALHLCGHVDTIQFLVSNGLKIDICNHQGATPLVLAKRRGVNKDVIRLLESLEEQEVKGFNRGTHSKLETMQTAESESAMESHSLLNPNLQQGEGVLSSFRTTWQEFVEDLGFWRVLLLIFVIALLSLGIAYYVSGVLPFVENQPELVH
UniProt Q6UB99: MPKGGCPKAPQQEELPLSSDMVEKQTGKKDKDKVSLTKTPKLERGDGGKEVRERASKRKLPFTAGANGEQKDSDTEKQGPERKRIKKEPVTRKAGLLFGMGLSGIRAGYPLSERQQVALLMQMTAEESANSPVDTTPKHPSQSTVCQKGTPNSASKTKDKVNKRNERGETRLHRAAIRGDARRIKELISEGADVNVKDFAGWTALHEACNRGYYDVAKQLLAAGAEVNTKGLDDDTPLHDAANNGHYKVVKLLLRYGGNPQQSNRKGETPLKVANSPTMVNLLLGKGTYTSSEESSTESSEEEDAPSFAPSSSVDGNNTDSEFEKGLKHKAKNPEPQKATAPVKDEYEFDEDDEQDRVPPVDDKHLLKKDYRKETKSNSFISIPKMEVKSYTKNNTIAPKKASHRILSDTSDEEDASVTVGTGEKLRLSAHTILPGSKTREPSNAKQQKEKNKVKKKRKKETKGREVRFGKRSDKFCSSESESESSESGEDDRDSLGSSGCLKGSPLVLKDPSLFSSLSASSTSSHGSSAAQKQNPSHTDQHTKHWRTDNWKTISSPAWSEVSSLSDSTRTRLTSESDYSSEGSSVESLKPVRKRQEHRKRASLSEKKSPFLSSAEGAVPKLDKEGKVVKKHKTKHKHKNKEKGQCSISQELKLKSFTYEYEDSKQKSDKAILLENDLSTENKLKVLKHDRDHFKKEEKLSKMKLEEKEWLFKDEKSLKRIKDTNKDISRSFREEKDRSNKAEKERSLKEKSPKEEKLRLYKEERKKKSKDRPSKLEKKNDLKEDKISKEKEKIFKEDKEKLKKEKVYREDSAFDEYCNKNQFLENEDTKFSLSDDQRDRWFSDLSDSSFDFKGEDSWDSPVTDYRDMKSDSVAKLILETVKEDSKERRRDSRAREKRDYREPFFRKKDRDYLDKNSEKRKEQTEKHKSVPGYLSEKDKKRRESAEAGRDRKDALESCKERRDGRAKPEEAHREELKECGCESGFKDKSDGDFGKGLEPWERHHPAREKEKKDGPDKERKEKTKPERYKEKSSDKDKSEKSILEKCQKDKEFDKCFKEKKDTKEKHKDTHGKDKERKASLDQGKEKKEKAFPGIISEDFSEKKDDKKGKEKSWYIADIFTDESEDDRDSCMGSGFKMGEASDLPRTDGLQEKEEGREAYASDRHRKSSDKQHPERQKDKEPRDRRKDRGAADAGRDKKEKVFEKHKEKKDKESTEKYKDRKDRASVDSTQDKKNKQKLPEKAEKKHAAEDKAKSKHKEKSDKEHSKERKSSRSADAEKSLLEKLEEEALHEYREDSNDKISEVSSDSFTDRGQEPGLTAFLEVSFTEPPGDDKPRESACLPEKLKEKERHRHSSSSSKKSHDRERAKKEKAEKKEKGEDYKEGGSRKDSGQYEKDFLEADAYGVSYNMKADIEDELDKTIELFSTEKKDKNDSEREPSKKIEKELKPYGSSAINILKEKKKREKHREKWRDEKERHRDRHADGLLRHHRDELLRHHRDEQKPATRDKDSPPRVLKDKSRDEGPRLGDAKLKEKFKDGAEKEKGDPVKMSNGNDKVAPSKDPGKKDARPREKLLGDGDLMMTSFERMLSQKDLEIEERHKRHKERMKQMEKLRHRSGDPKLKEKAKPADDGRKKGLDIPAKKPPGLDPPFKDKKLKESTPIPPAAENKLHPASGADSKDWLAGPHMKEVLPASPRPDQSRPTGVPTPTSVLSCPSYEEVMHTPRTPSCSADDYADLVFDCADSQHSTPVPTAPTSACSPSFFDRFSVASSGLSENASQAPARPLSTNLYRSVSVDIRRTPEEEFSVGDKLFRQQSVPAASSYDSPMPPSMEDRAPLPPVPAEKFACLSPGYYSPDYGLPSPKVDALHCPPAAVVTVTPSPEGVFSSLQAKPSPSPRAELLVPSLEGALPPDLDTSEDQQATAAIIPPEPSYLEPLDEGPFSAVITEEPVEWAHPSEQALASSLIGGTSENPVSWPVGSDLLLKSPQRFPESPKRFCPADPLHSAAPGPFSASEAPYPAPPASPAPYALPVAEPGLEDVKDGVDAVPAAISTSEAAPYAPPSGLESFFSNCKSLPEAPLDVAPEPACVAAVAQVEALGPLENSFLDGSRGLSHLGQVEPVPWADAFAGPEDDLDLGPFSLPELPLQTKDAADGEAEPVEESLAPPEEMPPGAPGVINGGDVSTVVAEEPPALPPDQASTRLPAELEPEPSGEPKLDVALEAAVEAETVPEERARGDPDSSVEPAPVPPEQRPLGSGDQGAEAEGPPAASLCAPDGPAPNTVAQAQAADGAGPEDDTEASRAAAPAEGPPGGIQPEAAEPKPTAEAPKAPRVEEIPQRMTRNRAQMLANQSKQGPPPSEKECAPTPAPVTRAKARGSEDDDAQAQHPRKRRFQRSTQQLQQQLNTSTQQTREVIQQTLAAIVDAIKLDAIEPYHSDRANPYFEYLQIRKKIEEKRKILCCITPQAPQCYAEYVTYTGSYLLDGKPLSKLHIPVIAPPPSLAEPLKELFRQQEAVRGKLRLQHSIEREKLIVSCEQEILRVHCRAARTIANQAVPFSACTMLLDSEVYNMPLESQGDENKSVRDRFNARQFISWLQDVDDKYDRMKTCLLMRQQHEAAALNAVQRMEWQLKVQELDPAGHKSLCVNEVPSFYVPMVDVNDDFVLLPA
UniProt Q9NXR5: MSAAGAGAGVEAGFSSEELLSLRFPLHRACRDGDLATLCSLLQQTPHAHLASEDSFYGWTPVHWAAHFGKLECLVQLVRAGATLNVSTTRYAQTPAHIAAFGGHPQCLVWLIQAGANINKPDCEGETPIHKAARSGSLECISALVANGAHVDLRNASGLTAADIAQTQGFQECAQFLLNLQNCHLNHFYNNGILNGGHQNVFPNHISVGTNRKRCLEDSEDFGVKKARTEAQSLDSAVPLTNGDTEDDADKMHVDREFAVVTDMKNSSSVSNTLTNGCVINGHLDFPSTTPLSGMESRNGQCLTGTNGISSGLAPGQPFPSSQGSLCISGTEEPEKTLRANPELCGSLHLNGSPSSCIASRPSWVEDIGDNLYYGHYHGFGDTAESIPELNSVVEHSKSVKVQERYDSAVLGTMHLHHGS
UniProt O75342: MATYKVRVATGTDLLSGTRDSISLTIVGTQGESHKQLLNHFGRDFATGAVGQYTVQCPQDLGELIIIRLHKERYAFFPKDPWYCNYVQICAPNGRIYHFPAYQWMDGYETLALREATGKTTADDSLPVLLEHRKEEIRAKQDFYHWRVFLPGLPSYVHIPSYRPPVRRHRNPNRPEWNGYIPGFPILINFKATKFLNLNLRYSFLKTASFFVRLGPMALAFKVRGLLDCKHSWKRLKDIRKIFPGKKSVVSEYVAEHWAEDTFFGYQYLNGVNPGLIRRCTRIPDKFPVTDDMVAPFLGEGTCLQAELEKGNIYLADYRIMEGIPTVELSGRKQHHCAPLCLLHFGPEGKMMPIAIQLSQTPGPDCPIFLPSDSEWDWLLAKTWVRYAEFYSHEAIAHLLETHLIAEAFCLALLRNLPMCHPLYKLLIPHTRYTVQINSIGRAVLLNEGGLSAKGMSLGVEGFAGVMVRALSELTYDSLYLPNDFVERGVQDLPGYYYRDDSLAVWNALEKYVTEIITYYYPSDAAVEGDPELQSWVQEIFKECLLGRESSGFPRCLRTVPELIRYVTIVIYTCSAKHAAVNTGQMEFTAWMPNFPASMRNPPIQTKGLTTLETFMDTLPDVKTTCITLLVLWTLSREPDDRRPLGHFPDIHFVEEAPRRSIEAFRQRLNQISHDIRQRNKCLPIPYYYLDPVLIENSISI
UniProt Q5I7T1: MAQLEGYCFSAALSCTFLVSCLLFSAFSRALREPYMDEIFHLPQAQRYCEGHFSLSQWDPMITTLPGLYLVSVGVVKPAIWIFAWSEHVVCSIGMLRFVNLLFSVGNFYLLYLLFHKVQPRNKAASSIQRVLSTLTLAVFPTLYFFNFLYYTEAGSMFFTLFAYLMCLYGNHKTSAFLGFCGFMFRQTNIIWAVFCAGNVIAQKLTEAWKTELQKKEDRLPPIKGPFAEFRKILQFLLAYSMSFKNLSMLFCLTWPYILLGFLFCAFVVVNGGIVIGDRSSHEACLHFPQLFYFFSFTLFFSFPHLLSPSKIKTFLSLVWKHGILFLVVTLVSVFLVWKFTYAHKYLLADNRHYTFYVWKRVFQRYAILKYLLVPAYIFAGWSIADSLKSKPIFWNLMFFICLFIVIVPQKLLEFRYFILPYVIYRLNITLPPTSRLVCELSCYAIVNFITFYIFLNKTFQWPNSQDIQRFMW
UniProt Q96QP1: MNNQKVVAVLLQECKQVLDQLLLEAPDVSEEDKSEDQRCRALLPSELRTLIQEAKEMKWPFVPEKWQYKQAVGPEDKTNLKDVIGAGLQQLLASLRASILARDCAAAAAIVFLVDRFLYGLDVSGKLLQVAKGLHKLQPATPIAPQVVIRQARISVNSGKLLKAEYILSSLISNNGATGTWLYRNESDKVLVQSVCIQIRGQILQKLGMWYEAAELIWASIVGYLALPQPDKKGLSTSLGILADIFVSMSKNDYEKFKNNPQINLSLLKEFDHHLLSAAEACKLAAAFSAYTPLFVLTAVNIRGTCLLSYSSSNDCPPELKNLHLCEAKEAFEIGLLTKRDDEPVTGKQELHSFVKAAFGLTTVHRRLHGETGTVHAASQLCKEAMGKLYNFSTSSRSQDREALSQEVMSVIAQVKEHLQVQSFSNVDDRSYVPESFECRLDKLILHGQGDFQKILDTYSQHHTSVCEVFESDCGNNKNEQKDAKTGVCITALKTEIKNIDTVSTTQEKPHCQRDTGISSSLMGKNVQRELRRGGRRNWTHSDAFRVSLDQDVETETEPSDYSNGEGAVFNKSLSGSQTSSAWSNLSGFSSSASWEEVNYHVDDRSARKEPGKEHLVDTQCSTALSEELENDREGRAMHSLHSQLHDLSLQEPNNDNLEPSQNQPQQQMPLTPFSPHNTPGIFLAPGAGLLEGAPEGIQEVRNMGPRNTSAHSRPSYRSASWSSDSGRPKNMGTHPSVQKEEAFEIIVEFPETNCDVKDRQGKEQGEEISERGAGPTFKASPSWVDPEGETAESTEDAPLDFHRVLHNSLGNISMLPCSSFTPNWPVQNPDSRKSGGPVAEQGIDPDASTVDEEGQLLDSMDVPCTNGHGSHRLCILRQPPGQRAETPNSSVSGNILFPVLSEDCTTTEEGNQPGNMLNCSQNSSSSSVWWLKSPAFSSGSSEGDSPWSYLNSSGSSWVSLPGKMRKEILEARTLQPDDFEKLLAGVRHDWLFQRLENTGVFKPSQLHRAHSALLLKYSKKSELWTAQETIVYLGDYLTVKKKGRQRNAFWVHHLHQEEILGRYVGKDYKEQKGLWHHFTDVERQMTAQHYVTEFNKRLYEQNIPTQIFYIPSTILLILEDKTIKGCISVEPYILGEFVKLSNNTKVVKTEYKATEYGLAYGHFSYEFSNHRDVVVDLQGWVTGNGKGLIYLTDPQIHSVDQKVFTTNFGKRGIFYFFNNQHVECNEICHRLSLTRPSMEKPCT

What follows are targets tested with C/C(=N\NC(=O)C1=CC(=CC=C1)S(=O)(=O)N2CCOCC2)/C3=C(C=CC(=C3)Cl)O (assay: log2 fold change, soluble protein after heating vs DMSO (PISA); higher = thermal stabilisation; K562 lysate, 10 uM; active = over 0.2 and 3.5 SD of the protein, either way, in both replicates (recomputed)).
How it was run: (§1)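 A 30 min treatment with 10 μM compound was applied to crude K562 extract at 1 mg/mL protein in PBS pH 7.4 with 1 mM MgCl2. Heating for 3 min spanned 48°C-58°C, after which aliquots were pooled, adjusted to 0.5% NP-40 at 4°C and spun at 21,000xg for 90 min. TMTpro 16plex LC-MS/MS of the supernatant, with channel sums equalised, gave values recorded as log-two fold change in thermal stability against solvent controls, from duplicates.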

log2 fold change, inactive:
ALKBH1 (UniProt Q13686) -0.042
ANKRD52 (UniProt Q8NB46) -0.288
AMMECR1L (UniProt Q6DCA0) 0.023
ANKRD29 (UniProt Q8N6D5) 0
ALKBH6 isoform 2 (UniProt Q3KRA9) 0.008
AMBRA1 isoform 5 (UniProt Q9C0C7) -0.291
AKT1S1 isoform 3 (UniProt Q96B36) -0.219
ALDH18A1 (UniProt P54886) -0.039
ALDOA (UniProt H3BPS8) 0.007
ANGPTL4 (UniProt M0R3A2) -0.157
ANKH (UniProt Q9HCJ1) 0.036
AMFR (UniProt Q9UKV5) 0.204
ANO10 (UniProt Q9NW15) -0.015
ANKRD44 isoform 2 (UniProt Q8N8A2) -0.035
ANKRD46 (UniProt Q86W74) -0.279
ANKRD40 (UniProt Q6AI12) -0.269
AP1S1 (UniProt P61966) -0.088
AP4E1 (UniProt Q9UPM8) -0.104
AP3D1 isoform 2 (UniProt O14617) -0.082
ANKRD11 (UniProt Q6UB99) -0.077
ANXA13 isoform 2 (UniProt P27216) 0.111
AP2M1 (UniProt Q96CW1) -0.028
ANAPC16 (UniProt Q96DE5) 0.046
ANKRD10 (UniProt Q9NXR5) 0.045

What follows are targets tested with C1=CC(=CC=C1C2=NC3=C(N2)C=C(C=C3)C(=O)N)OC4=CC=C(C=C4)Cl in the same assay as above.
How it was run: as §1

log2 fold change, inactive:
ALOX12B (UniProt O75342) -0.032
ANKHD1 isoform 2 (UniProt Q8IWZ3) -0.036
ALKBH1 (UniProt Q13686) -0.02
ANKRD52 (UniProt Q8NB46) 0.026
AMMECR1L (UniProt Q6DCA0) 0.206
ALG10B (UniProt Q5I7T1) 0.024
ANKRD29 (UniProt Q8N6D5) -0.064
ALKBH6 isoform 2 (UniProt Q3KRA9) -0.002
ALG11 (UniProt Q2TAA5) -0.008
AP3S2 (UniProt P59780) 0.009
AMBRA1 isoform 5 (UniProt Q9C0C7) -0.015
AKT1S1 isoform 3 (UniProt Q96B36) -0.08
ALDH18A1 (UniProt P54886) -0.017
ALDOA (UniProt H3BPS8) 0.075
ANGPTL4 (UniProt M0R3A2) -0.109
ANKH (UniProt Q9HCJ1) 0.074
AMFR (UniProt Q9UKV5) -0.157
ANO10 (UniProt Q9NW15) -0.041
AP1S3 isoform 4 (UniProt Q96PC3) -0.054
ANKRD44 isoform 2 (UniProt Q8N8A2) 0.002
ANKRD46 (UniProt Q86W74) 0.258
ALPK1 (UniProt Q96QP1) 0.04
ANKRD40 (UniProt Q6AI12) 0.093
AP1S1 (UniProt P61966) -0.064
AP4E1 (UniProt Q9UPM8) 0.009
AP3D1 isoform 2 (UniProt O14617) -0.15
ANKRD11 (UniProt Q6UB99) 0.011
ANXA13 isoform 2 (UniProt P27216) -0.121
AP2M1 (UniProt Q96CW1) 0.004
AP1S2 (UniProt H7BZG6) -0.085
ANAPC16 (UniProt Q96DE5) -0.023
ANKRD10 (UniProt Q9NXR5) -0.041
ANXA2 (UniProt H0YL33) 0.088
